Many values rest on one well or one pass, so single values are uncertain.
Compound: [O-][N+](C(C1=C(C(O)=C2)NC(C(C=C3)=CC=C3Cl)C4C1C=CC4)=C2Cl)=O
Assay: melting temperature shift (compound 7 minus DMSO); higher = compound stabilises the protein
Details: 10 µM
Method: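 Thermal proteome profiling (TMT mass spectrometry) in intact DAOY medulloblastoma cells or DAOY lysates treated with 10 µM compound 7 or DMSO, heated at 10 temperatures from 40.5 to 73.8 °C for 3 min. Melting curves were fitted with the Bioconductor TPP package, and the melting point difference between compound and vehicle is reported per protein (single curve per condition).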

Protein sequences, listed by entry. Tags and fused reporters are not part of them. Lines headed by an entry give the natural chain unless they say otherwise; changes in a name come on top.
UniProt Q92540: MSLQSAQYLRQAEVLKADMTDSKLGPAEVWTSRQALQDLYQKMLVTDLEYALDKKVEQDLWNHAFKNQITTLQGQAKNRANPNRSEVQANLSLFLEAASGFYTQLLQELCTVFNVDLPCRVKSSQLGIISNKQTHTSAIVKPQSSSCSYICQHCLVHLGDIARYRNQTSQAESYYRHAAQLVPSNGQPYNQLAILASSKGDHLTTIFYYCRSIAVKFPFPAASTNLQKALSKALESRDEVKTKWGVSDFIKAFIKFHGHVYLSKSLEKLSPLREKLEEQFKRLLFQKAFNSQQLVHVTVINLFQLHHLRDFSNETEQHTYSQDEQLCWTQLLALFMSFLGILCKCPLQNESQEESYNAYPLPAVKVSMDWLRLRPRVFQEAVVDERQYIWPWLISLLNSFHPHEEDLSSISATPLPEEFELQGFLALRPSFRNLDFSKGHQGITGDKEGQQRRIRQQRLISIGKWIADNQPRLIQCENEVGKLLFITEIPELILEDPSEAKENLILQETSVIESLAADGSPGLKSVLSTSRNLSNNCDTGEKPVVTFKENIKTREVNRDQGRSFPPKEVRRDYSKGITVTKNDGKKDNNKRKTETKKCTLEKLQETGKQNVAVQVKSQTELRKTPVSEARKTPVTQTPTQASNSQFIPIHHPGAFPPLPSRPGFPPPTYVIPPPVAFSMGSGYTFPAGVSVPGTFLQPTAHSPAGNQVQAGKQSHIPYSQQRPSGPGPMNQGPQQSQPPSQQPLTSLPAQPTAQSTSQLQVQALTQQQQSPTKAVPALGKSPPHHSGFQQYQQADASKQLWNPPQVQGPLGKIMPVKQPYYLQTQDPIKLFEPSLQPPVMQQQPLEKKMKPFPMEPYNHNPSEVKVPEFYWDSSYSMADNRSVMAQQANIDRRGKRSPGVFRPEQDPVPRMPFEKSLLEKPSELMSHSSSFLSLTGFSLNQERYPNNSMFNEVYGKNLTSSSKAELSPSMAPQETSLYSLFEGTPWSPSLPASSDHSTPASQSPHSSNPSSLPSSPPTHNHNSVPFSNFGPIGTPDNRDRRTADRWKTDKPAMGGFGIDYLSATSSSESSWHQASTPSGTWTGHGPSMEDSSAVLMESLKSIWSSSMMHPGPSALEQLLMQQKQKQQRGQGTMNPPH
UniProt Q9UI42: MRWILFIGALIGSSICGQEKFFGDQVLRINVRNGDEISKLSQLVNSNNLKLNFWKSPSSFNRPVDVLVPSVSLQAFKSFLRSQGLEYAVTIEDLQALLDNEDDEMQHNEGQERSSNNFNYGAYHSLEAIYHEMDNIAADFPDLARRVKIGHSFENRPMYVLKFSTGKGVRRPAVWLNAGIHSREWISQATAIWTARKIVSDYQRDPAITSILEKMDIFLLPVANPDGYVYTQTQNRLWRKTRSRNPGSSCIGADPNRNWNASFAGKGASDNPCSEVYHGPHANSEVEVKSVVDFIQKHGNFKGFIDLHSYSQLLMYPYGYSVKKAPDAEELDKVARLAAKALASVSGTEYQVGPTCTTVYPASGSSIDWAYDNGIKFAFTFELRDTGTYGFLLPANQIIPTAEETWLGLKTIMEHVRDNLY
UniProt Q13546: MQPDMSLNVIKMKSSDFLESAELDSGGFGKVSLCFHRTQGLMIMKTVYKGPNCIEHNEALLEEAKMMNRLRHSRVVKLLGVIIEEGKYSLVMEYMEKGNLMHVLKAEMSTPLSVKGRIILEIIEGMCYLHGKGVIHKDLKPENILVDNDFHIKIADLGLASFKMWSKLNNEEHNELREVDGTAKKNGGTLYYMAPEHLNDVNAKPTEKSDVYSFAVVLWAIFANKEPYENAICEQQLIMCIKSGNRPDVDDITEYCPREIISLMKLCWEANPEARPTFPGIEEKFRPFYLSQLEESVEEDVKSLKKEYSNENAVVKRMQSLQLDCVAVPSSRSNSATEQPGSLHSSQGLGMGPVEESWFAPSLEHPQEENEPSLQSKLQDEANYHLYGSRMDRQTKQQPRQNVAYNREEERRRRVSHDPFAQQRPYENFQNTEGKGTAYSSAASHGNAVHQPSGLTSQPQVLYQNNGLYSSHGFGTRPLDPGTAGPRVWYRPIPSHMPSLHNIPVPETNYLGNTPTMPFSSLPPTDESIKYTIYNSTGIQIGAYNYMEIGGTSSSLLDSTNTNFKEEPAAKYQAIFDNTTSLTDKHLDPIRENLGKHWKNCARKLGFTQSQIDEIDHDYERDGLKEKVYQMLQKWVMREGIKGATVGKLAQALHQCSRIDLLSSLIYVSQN
UniProt Q32P51: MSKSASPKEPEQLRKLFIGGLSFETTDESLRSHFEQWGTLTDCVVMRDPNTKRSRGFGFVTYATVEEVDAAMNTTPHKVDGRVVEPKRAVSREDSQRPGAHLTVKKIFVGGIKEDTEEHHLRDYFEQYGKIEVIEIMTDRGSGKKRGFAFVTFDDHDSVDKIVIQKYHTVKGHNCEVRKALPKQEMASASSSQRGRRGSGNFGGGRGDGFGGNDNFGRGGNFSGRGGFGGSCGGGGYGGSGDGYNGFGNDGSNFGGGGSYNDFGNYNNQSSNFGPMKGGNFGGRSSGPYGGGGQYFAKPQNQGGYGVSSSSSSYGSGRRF
UniProt Q5TGZ0: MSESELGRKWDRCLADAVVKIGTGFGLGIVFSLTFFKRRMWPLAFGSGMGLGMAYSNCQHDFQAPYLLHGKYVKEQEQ
UniProt Q05209: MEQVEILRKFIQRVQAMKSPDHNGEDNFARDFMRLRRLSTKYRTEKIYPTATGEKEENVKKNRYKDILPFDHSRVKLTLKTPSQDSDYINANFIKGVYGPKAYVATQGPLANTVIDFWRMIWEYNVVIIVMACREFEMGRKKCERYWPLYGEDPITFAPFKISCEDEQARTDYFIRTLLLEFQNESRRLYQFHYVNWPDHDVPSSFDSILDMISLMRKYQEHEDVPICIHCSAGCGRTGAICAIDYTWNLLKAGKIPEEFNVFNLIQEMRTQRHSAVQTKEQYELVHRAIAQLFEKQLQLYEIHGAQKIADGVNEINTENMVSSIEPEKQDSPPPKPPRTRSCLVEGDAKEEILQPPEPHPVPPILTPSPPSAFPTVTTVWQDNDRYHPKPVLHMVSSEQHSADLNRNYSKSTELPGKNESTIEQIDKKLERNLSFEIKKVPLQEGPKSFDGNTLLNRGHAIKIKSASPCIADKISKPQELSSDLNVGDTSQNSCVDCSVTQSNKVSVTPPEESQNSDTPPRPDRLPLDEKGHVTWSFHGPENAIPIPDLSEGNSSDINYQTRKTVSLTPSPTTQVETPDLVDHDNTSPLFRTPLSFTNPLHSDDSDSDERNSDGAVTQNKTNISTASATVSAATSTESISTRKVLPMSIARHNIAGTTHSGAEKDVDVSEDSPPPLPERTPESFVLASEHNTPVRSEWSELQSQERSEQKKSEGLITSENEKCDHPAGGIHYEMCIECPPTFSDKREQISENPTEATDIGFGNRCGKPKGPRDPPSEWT
UniProt Q96CP6, whole entry: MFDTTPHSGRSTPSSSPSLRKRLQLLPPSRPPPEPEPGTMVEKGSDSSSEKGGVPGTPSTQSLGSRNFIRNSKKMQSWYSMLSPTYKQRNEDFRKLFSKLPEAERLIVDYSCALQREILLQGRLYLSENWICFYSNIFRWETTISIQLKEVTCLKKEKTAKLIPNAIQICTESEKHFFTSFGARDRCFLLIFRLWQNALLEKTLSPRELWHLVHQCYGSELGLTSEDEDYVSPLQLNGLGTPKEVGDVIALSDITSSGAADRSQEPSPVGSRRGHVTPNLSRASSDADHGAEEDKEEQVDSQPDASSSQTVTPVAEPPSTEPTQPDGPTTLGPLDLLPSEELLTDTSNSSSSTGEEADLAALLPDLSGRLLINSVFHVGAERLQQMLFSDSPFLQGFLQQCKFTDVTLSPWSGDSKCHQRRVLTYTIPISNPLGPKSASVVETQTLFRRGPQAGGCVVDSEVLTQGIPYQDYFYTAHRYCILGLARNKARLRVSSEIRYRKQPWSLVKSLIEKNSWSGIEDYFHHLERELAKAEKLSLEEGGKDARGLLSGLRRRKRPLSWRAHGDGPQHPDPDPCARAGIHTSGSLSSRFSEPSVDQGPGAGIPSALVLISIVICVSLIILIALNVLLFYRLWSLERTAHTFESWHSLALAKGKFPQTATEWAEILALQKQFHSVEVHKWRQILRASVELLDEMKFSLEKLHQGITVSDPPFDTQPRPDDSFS
UniProt Q9BSV6: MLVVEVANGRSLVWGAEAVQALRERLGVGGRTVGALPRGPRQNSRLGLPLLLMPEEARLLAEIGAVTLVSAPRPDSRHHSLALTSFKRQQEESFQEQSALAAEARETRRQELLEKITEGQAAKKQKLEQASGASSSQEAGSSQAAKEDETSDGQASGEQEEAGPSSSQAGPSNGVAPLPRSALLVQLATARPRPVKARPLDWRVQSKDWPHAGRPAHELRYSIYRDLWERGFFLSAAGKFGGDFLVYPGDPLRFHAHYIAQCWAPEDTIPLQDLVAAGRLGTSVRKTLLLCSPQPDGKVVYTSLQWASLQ
UniProt Q96LD8: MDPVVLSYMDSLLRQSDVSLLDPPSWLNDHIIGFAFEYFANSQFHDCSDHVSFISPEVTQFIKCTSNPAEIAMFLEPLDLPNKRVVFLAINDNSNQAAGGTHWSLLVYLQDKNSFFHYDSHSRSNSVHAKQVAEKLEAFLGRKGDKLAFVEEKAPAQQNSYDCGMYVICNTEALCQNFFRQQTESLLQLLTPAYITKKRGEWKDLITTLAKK
UniProt O60671: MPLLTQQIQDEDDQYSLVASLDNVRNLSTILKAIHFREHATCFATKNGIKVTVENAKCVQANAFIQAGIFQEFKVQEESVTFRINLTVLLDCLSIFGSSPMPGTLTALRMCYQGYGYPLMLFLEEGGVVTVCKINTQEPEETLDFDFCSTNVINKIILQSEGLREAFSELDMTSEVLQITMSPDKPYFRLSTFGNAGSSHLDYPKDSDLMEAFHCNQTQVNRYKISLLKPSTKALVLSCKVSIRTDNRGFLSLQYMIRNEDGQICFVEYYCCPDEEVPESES
UniProt Q86X55: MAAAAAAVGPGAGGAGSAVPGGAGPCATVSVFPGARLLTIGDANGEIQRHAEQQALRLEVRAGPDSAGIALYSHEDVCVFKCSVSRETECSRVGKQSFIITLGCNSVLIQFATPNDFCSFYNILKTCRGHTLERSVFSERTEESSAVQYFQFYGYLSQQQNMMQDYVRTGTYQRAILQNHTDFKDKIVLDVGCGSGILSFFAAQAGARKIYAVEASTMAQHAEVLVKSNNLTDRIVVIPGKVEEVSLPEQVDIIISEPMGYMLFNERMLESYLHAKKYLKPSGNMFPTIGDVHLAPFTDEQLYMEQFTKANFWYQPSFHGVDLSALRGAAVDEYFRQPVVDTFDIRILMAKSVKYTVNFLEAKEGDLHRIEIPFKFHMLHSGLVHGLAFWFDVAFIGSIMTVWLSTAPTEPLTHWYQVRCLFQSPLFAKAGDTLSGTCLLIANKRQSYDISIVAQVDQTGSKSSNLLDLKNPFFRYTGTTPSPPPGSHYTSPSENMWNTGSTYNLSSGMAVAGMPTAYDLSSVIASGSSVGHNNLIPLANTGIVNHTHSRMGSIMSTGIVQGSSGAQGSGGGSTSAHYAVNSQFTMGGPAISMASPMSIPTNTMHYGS
UniProt P32322: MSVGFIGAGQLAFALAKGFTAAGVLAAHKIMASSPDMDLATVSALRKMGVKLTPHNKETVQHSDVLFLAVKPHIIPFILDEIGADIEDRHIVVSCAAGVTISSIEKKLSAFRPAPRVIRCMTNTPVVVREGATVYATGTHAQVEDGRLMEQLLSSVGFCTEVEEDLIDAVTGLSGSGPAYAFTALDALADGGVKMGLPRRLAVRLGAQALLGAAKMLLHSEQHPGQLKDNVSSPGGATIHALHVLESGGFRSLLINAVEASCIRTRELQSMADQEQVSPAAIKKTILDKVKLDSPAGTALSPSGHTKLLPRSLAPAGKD
UniProt P62318, whole entry: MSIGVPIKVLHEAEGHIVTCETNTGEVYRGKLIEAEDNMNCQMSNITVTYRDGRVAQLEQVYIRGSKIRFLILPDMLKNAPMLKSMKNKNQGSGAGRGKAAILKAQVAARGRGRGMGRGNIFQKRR
UniProt Q9P2K5: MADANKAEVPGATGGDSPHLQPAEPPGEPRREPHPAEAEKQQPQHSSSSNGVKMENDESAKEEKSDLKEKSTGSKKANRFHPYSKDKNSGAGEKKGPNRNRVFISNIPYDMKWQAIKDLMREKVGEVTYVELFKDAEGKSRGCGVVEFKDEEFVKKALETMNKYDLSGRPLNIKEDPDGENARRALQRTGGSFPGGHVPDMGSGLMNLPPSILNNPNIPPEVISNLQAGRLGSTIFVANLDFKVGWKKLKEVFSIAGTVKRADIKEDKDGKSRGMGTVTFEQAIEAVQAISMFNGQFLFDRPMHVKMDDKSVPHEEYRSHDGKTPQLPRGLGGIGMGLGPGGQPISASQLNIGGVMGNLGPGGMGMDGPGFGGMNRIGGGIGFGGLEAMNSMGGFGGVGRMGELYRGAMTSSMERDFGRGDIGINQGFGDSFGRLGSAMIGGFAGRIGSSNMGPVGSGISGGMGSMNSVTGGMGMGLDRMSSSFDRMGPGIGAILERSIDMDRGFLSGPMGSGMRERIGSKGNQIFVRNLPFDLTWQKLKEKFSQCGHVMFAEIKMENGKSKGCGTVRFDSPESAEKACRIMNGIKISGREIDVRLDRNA

[1] = system: DAOY cell lysate, treatment time: 20 min, 4 °C
[2] = system: intact DAOY cells, treatment time: 90 min, 37 °C

Target	melting temperature shift [1] [°C]	melting temperature shift [2] [°C]
UBE2O (UniProt Q9C0C9)	-0.414	0.594
WDR26 (UniProt Q9H7D7)	-0.754	0.0144
ZFPL1 (UniProt O95159)	–	-0.0752
SMG7 (UniProt Q92540)	0.698	–
CPA4 (UniProt Q9UI42)	-0.29	7.12
RIPK1 (UniProt Q13546)	-0.447	-1.17
CACYBP (UniProt Q9HB71)	-0.281	0.156
RACGAP1 (UniProt Q9H0H5)	-0.206	0.232
XPNPEP1 (UniProt Q9NQW7)	-0.148	1.04
OGT (UniProt O15294)	-0.617	-0.44
POLB (UniProt P06746)	-2.13	–
UniProt Q32P51	–	-0.205
UniProt Q5TGZ0	–	1.3
HAUS8 (UniProt Q9BT25)	0.551	-1.2
PTPN12 (UniProt Q05209)	-0.0787	0.0269
UniProt P84022	0.205	-0.134
GRAMD1A (UniProt Q96CP6)	–	2.58
FAT1 (UniProt Q14517)	–	1.09
ABI1 (UniProt Q8IZP0)	-0.404	0.341
UniProt P17693	–	-1.61

Target	melting temperature shift [1] [°C]	melting temperature shift [2] [°C]
UniProt Q9Y6H8	-2.34	–
TSEN34 (UniProt Q9BSV6)	-0.479	-0.209
UniProt Q96LD8	0.718	0.277
WRAP53 (UniProt Q9BUR4)	0.209	1.5
UniProt Q2QD12	–	2.04
ARFIP1 (UniProt P53367)	-0.745	3.7
TRAP1 (UniProt Q12931)	0.464	-1.65
CHSY1 (UniProt Q86X52)	2.91	–
UniProt Q9BWK5	2.48	–
SNAPIN (UniProt O95295)	-2.11	0.581
ENOPH1 (UniProt Q9UHY7)	0.0793	–
AFG3L2 (UniProt Q9Y4W6)	1.57	0.0504
UniProt Q9BRJ7	0.301	1.53
UniProt Q96GF1	-5.13	-0.294
DERA (UniProt Q9Y315)	0.108	1.86
POP4 (UniProt O95707)	-0.653	–
UniProt Q9BT92	-0.47	–
UniProt Q5T200	0.76	-0.0122
CSNK1A1L (UniProt Q8N752)	–	-0.0531
MARS (UniProt P56192)	-1.6	-0.746

Target	melting temperature shift [1] [°C]	melting temperature shift [2] [°C]
NAMPT (UniProt P43490)	-0.921	-0.115
GUK1 (UniProt Q16774)	0.527	-0.929
RAD1 (UniProt O60671)	–	-0.625
UniProt Q16854	–	-0.553
WDR48 (UniProt Q8TAF3)	-0.62	-0.327
RFX5 (UniProt P48382)	-0.2	-0.581
MRPL38 (UniProt Q96DV4)	1	–
CARM1 (UniProt Q86X55)	-0.104	0.415
PYCR1 (UniProt P32322)	-0.293	1.7
KLC1 (UniProt Q07866)	-0.485	-0.433
SNRPD3 (UniProt P62318)	-0.415	0.57
UniProt Q9P2K5	0.229	0.18
KHDRBS1 (UniProt Q07666)	1.04	0.249
B3GLCT (UniProt Q6Y288)	-1.22	-0.807
PTGES2 (UniProt Q9H7Z7)	0.84	0.309
WDR11 (UniProt Q9BZH6)	-0.782	0.51
RSBN1 (UniProt Q5VWQ0)	2.04	-2.47
ALDH7A1 (UniProt P49419)	-0.0241	0.0704

Complete entries as entered above. Order of values: melting temperature shift [1] [°C]	melting temperature shift [2] [°C]
CHSY1 (UniProt Q86X52) in the list: 2.91	–
WDR26 (UniProt Q9H7D7) in the list: -0.754	0.0144

— the supplement of paper PMC10060354, “Discovery of a small molecule ligand of FRS2 that inhibits invasion and tumor growth” (Cellular Oncology, 2022)
